Literature values in patent US8609835B2, “Polysaccharide composition and methods of isolation of the emulsion stabilizing cationic polyelectrolytic polysaccharide” (Trustees Of Tufts College, priority 2008, dated 2013).
Converted amounts (≈) assume the structure as drawn. Where two headings read alike, the source gives them in different places.

Conditions: free drug, reported, cited from earlier work

CC(=O)O[C@H]1C(=O)[C@@]2(C)[C@H]([C@H](OC(=O)c3ccccc3)[C@]3(O)C[C@H](OC(=O)[C@H](O)[C@@H](NC(=O)c4ccccc4)c4ccccc4)C(C)=C1C3(C)C)[C@]1(OC(C)=O)CO[C@@H]1C[C@@H]2O [paclitaxel]
aqueous solubility (listed as PTX): < 0.33 µg/mL
aqueous solubility (listed as free paclitaxel): 0.33 µg/mL (≈ 0.386 µM)
